Primary screen of a compound library

Sequences of proteins named here, by UniProt entry; tags and fusion partners are left off.
UniProt P9WFT3, whole entry: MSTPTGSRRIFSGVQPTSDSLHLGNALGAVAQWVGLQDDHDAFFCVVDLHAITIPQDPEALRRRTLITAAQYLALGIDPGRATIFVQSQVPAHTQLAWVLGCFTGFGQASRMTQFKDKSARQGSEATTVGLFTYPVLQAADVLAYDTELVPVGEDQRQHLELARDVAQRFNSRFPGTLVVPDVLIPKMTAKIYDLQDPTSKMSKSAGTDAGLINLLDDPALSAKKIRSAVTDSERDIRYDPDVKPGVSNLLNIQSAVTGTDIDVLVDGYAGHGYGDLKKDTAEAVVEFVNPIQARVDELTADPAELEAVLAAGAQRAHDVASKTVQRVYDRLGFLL

Leishmania in macrophages: 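Cell assay of Leishmania donovani living inside macrophages; the read-out is not stated. Compounds at 30 µM. Higher reads as stronger inhibition (inferred: compounds with an IC50 in retests scored well above the rest). Of about 69,000 compounds tested this way, about 1,000 (1.5%) reached 50% or more in at least one test.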
MtTrpRS: 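Enzyme assay of tryptophanyl-tRNA synthetase; the read-out is not stated. Target: Tryptophan-tRNA ligase, Mycobacterium tuberculosis (UniProt P9WFT3). Compounds at 10 µM. Higher most likely means stronger inhibition; the record gives no direction and few retests gave an IC50. Size under these conditions: about 65,000 compounds, about 64 of them at 50% or above in at least one test.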
T. brucei: 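Whole-parasite assay of Trypanosoma brucei over 72 hours; the read-out is not stated. Concentration: 30 µM. The record gives no direction; compounds that gave an IC50 in retests scored well above the rest, so higher reads as stronger inhibition. Values scatter widely below zero; nearly all retest evidence comes from the higher of the two concentrations used. Of about 64,000 compounds tested this way, about 940 (1.5%) reached 50% or more in at least one test.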

Each number is a percent effect as filed. The controls that fix the scale are not given in the record; negative values are as filed. This is an unselected part of the compounds tested.

* [H][C@@]12CN(C(=O)c3ccc(F)cc3)C[C@]1([H])CN(c1ncccn1)C2 : Leishmania in macrophages: 9.235%; T. brucei: -32.62%
* O=C(N[C@@H]1CN(C2CCCC2)C[C@@H]2CCCO[C@@H]21)c1cnccn1 : MtTrpRS: -1.79%
* CN(Cc1nccs1)C1CCN(c2ncccn2)CC1 : Leishmania in macrophages: 3.903%; MtTrpRS: 2.683%; T. brucei: -23.17%
* Fc1cccc(N2CCCC3(CN(Cc4ccco4)CCO3)C2)c1.O=C(O)C(F)(F)F.O=C(O)C(F)(F)F (stereo not given) : Leishmania in macrophages: 13.35%; T. brucei: 99.09%
* Cc1ccsc1CN(CCCO)Cc1nc2ccccc2[nH]1 : Leishmania in macrophages: 24.17%; MtTrpRS: -2.039%; T. brucei: -11.12%
* COCCN1CCOCC2(CCN(c3cnccn3)CC2)C1 : MtTrpRS: -5.969%
* O=C1CN(c2ccc(CNc3cncc(-n4cccn4)n3)cc2)CCN1 : Leishmania in macrophages: -8.606%; MtTrpRS: -5.094%; T. brucei: 14.27%
* Cn1nc2c(cc1=O)CN(CC(=O)Nc1ccc(Cl)cn1)CC2 : Leishmania in macrophages: -1.161%; MtTrpRS: -2.275%; T. brucei: 6.298%
* Cn1c(=O)[nH]c(=O)n2c(CC(=O)Nc3ccccc3)cnc12 : Leishmania in macrophages: 1.382%; MtTrpRS: -5.791%
* CN(CC(O)C(F)(F)F)C(=O)Nc1cccc(Cn2cccn2)c1 (stereo not given) : Leishmania in macrophages: 9.339%; MtTrpRS: -0.5113%; T. brucei: -7.364%
* Cc1cc(CN2CCN(C(C)C(=O)NCc3cccs3)CC2)no1 (stereo not given) : Leishmania in macrophages: 13.84%; MtTrpRS: -1.554%; T. brucei: -17.12%
* COc1c(CNC2(c3noc(C)n3)CCC2)c(C)nn1C : MtTrpRS: -2.621%
* CCS(=O)(=O)NC[C@]12COC[C@H]1CN(Cc1cccnc1)C2 : MtTrpRS: 12.8%
* Cc1nnc(CN2CCC(Oc3ccc(F)cc3)CC2)o1 : Leishmania in macrophages: -12.89%; MtTrpRS: -1.312%; T. brucei: -28.77%
* [H][C@@]12CS(=O)(=O)C[C@]1([H])N(Cc1cccnc1)CCN2CCOC : Leishmania in macrophages: 1.541%; T. brucei: -19.59%
* O=C(O)C(F)(F)F.[H][C@@]12C[C@H](C(=O)N3CCOCC3)[C@@]([H])(CN(c3ncc(CC)cn3)C1)O2 : Leishmania in macrophages: 16.86%; T. brucei: 0.8408%
* O=C(O)CSC1CCc2ccccc2NC1=O (stereo not given) : Leishmania in macrophages: 27.36%; MtTrpRS: -0.8653%; T. brucei: 3.933%
* CCOC(=O)C1CCN(C(=O)c2cnn(-c3ccc(C)cc3)c2N)CC1 : Leishmania in macrophages: 31.6%; T. brucei: -0.4439%
* CCN1CC2(CC1=O)CN(Cc1ccsc1)CCN(C(=O)C(C)C)C2 (stereo not given) : MtTrpRS: -0.8299%

Repeated from the top, 2 entries:

{"compound": "[H][C@@]12CN(C(=O)c3ccc(F)cc3)C[C@]1([H])CN(c1ncccn1)C2", "Leishmania in macrophages": 9.235, "T. brucei": -32.62}
{"compound": "O=C(N[C@@H]1CN(C2CCCC2)C[C@@H]2CCCO[C@@H]21)c1cnccn1", "MtTrpRS": -1.79}

From ChEMBL document CHEMBL3988442, “University of Dundee, Small-Polar-MMV Screening Library” (2021).